Test results published in PubChem BioAssay AID248 (DTP/NCI, 2004).
The list does not hold the whole screen: it gathers tests that were run many times, whatever their T/C, doses with no T/C, and many T/C values between a quarter and a half above the control. Other doses and runs of a compound stand elsewhere. T/C: endpoint of the treated group in % of that of the vehicle group. Some entries give survivors of the animals treated and no T/C: the source files T/C as zero there, which appears to mark a toxic dose or a test without result, not a measured value. Some doses without a T/C left all or most animals alive at the check, yet need not have been tolerated: survival well below the control is almost never listed, so the zero probably covers shortened survival too. Counts of survivors are from the toxicity check (mostly the fifth day) where no day follows; animals may have died later. Schedule codes are those of the source, taken here to give the interval after Q, in days (D) or hours (H), and the number of doses after X. Some schedule codes hold Z or #, which are not explained here. For survival time, the PubChem record calls one and a half times the control and up active, and a quarter to a half above the control has no call in these data; cut-offs in other NCI protocols can differ. Some doses were run more than once; their values stand side by side, smallest first. Some T/C values carry the count of animals alive at the toxicity check (mostly the fifth day); without a count, all were alive then.

Tested on: L1210 leukemia ip in BDF1 mice, survival T/C
Assay: NCI In Vivo Anticancer Drug Screen. Data for tumor model L1210 Leukemia (intraperitoneal) in B6D2F1 (BDF1) mice
Details: T/C endpoint: mean survival time, higher T/C = longer survival

Compound: O=c1[nH]cc(N(CCCl)CCCl)c(=O)[nH]1
- T/C (dose: 0.15 mg/kg/injection, schedule: Q03DX006 (ip), vehicle: carboxymethylcellulose (CMC)): 131 % of control
- T/C (dose: 0.19 mg/kg/injection, schedule: Q#A X Z (ip), vehicle: carboxymethylcellulose (CMC)): 125 % of control
- T/C (dose: 0.25 mg/kg/injection, schedule: Q01DX001 (ip), vehicle: carboxymethylcellulose (CMC)): 127 % of control
- T/C (dose: 0.3 mg/kg/injection, schedule: Q01DX Z (ip), vehicle: carboxymethylcellulose (CMC)): 125 % of control
- T/C (dose: 0.3 mg/kg/injection, schedule: Q03DX006 (ip), vehicle: carboxymethylcellulose (CMC)): 125 % of control
- T/C (dose: 0.37 mg/kg/injection, schedule: Q#A X Z (ip), vehicle: carboxymethylcellulose (CMC)): 132 % of control
- survivor count (dose: 0.38 mg/kg/injection, schedule: Q01DX Z (ip), vehicle: carboxymethylcellulose (CMC)): 6 of 6
- T/C (dose: 0.6 mg/kg/injection, schedule: Q01DX Z (ip), vehicle: carboxymethylcellulose (CMC)): 145 % of control
- T/C (dose: 0.6 mg/kg/injection, schedule: Q03DX006 (ip), vehicle: carboxymethylcellulose (CMC)): 130 % of control
- T/C (dose: 0.63 mg/kg/injection, schedule: Q07DX003 (ip), vehicle: carboxymethylcellulose (CMC)): 133 % of control
- T/C (dose: 0.67 mg/kg/injection, schedule: Q01DX Z (ip), vehicle: carboxymethylcellulose (CMC)): 137 % of control
- T/C (dose: 0.75 mg/kg/injection, schedule: Q#A X Z (ip), vehicle: carboxymethylcellulose (CMC)): 135 % of control
- T/C (dose: 0.83 mg/kg/injection, schedule: Q01DX Z (ip), vehicle: carboxymethylcellulose (CMC)): 148 % of control
- T/C (dose: 1.0 mg/kg/injection, schedule: Q01DX001 (ip), vehicle: carboxymethylcellulose (CMC)): 136 % of control
- T/C (dose: 1.1 mg/kg/injection, schedule: Q03DX006 (ip), vehicle: carboxymethylcellulose (CMC)): 135 % of control
- T/C (dose: 1.12 mg/kg/injection, schedule: Q01DX Z (ip), vehicle: carboxymethylcellulose (CMC)): 134 % of control
- T/C (dose: 1.5 mg/kg/injection, schedule: Q01DX001 (ip), vehicle: carboxymethylcellulose (CMC)): 141 % of control
- T/C (dose: 1.5 mg/kg/injection, schedule: Q01DX Z (im), vehicle: carboxymethylcellulose (CMC)): 125 % of control
- T/C (dose: 1.5 mg/kg/injection, schedule: Q01DX Z (ip), vehicle: carboxymethylcellulose (CMC)): 141 % of control
- T/C (dose: 1.5 mg/kg/injection, schedule: Q01DX Z (ip), vehicle: saline): 145 % of control [6 of 7 alive]
- T/C (dose: 1.5 mg/kg/injection, schedule: Q01DX Z (sc), vehicle: carboxymethylcellulose (CMC)): 143 % of control
- T/C (dose: 1.5 mg/kg/injection, schedule: Q#A X Z (ip), vehicle: carboxymethylcellulose (CMC)): 127 % of control
- T/C (dose: 1.67 mg/kg/injection, schedule: Q01DX Z (ip), vehicle: carboxymethylcellulose (CMC)): 144 % of control
- T/C (dose: 1.8 mg/kg/injection, schedule: Q01DX Z (ip), vehicle: saline): 129 and 144 % of control
- T/C (dose: 2.0 mg/kg/injection, schedule: Q01DX001 (ip), vehicle: carboxymethylcellulose (CMC)): 125 % of control
- T/C (dose: 2.4 mg/kg/injection, schedule: Q01DX001 (ip), vehicle: carboxymethylcellulose (CMC)): 147 % of control
- T/C (dose: 2.4 mg/kg/injection, schedule: Q01DX001 (ip), vehicle: gum acacia): 139 % of control
- T/C (dose: 2.5 mg/kg/injection, schedule: Q01DX Z (ip), vehicle: saline): 126 and 137 % of control
- T/C (dose: 3.0 mg/kg/injection, schedule: Q01DX006 (iv), vehicle: carboxymethylcellulose (CMC)): 137 % of control
- T/C (dose: 3.0 mg/kg/injection, schedule: Q01DX Z (im), vehicle: carboxymethylcellulose (CMC)): 125 and 139 % of control
- T/C (dose: 3.0 mg/kg/injection, schedule: Q01DX Z (oral), vehicle: carboxymethylcellulose (CMC)): 139 % of control
- T/C (dose: 3.0 mg/kg/injection, schedule: Q01DX Z (sc), vehicle: carboxymethylcellulose (CMC)): 135 and 141 % of control
- T/C (dose: 3.0 mg/kg/injection, schedule: Q#A X Z (ip), vehicle: carboxymethylcellulose (CMC)): 127 % of control
- T/C (dose: 3.6 mg/kg/injection, schedule: Q01DX001 (ip), vehicle: gum acacia): 142 % of control
- T/C (dose: 3.7 mg/kg/injection, schedule: Q01DX Z (ip), vehicle: alkali diluted with saline): 130 % of control
- survivor count (dose: 3.7 mg/kg/injection, schedule: Q01DX Z (ip), vehicle: saline): 4 of 6
- T/C (dose: 5.0 mg/kg/injection, schedule: Q01DX001 (ip), vehicle: carboxymethylcellulose (CMC)): 141 % of control
- survivor count (dose: 5.0 mg/kg/injection, schedule: Q07DX003 (ip), vehicle: carboxymethylcellulose (CMC)): 0 of 6
- survivor count (dose: 5.5 mg/kg/injection, schedule: Q01DX Z (ip), vehicle: saline): 6 of 6
- survivor count (dose: 6.0 mg/kg/injection, schedule: Q01DX006 (iv), vehicle: carboxymethylcellulose (CMC)): 3 of 6
- survivor count (dose: 6.0 mg/kg/injection, schedule: Q01DX Z (ip), vehicle: carboxymethylcellulose (CMC)): 6 of 6
- survivor count (dose: 6.0 mg/kg/injection, schedule: Q01DX Z (ip), vehicle: saline): 7 of 7
- survivor count (dose: 9.0 mg/kg/injection, schedule: Q03DX006 (ip), vehicle: carboxymethylcellulose (CMC)): 0 of 6
- survivor count (dose: 10.0 mg/kg/injection, schedule: Q07DX003 (ip), vehicle: carboxymethylcellulose (CMC)): 3 of 6
- survivor count (dose: 12.0 mg/kg/injection, schedule: Q01DX Z (im), vehicle: carboxymethylcellulose (CMC)): 6 of 6
- survivor count (dose: 12.0 mg/kg/injection, schedule: Q01DX Z (ip), vehicle: carboxymethylcellulose (CMC)): 4 of 6
- survivor count (dose: 12.0 mg/kg/injection, schedule: Q01DX Z (oral), vehicle: carboxymethylcellulose (CMC)): 4 of 6
- survivor count (dose: 12.0 mg/kg/injection, schedule: Q01DX Z (sc), vehicle: carboxymethylcellulose (CMC)): 5 of 6
- survivor count (dose: 12.0 mg/kg/injection, schedule: Q#A X Z (ip), vehicle: carboxymethylcellulose (CMC)): 6 of 6
- survivor count (dose: 20.0 mg/kg/injection, schedule: Q01DX001 (ip), vehicle: carboxymethylcellulose (CMC)): 3 of 6
- survivor count (dose: 21.0 mg/kg/injection, schedule: Q07DX003 (ip), vehicle: carboxymethylcellulose (CMC)): 0 of 6
- T/C (dose: 66.0 micrograms/kg/injection, schedule: Q01DX Z (ip), vehicle: saline): 138 % of control

Compound: NCCCCCCNC(=O)CCC(=O)NCCCCCCN
- survivor count (dose: 256.0 mg/kg/injection, schedule: Q01DX Z (ip), vehicle: saline): 0 of 6
